Consider two substances from article PMC11579010.

By UniProt entry, the sequences of proteins in these tests, tags left out. Where a name states a change or a piece, a line headed by the entry shows the natural chain unless it says otherwise. Chains listed by the source or under a name are the forms on record and can include a tag or linker. Residues count along the entry.
UniProt Q08345, residues 19-913: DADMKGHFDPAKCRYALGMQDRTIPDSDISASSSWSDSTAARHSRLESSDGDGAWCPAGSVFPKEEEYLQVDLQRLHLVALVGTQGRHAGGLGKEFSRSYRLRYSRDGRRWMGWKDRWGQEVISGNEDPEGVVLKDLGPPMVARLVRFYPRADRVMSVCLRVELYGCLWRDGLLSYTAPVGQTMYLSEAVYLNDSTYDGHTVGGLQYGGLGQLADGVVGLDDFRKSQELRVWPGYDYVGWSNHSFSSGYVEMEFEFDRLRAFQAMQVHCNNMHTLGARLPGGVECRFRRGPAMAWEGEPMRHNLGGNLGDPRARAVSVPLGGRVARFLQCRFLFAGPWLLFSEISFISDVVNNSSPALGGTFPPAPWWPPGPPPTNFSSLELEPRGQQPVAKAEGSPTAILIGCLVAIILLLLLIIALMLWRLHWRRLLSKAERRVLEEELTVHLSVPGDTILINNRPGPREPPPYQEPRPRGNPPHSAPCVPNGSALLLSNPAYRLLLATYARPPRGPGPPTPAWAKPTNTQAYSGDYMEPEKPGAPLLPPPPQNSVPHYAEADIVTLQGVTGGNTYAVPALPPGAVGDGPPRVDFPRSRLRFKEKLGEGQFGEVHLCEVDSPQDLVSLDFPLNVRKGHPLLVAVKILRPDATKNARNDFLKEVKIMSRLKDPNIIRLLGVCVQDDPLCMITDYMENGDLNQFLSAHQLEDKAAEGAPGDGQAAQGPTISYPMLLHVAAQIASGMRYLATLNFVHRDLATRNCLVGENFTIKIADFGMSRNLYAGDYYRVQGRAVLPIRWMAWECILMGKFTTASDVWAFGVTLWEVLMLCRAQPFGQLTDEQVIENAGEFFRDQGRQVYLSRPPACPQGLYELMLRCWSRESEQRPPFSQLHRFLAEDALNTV
myc-DDR1 (Q08345, form named): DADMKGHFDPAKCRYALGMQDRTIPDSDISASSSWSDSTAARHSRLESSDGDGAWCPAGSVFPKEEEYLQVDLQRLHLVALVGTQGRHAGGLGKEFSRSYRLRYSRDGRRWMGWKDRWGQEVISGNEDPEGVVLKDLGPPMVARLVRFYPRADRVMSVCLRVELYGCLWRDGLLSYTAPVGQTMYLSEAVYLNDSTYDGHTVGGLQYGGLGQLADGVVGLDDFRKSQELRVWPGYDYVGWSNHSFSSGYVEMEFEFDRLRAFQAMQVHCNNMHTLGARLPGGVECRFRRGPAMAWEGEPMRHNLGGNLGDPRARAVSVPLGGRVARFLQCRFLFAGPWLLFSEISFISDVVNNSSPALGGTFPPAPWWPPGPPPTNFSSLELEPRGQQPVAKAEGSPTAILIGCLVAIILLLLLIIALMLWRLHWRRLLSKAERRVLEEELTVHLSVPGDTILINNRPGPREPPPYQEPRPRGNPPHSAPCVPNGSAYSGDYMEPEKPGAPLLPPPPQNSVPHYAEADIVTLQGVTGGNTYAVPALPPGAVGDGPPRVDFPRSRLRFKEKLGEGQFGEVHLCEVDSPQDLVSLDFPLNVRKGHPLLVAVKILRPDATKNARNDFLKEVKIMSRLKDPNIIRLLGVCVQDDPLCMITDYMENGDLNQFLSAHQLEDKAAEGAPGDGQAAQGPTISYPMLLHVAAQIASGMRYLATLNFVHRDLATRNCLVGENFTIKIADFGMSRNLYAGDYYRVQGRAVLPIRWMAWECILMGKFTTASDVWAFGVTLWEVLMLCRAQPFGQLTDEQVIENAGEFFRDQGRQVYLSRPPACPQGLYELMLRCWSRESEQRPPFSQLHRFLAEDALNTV
myc-DDR1-K618A (Q08345, form named): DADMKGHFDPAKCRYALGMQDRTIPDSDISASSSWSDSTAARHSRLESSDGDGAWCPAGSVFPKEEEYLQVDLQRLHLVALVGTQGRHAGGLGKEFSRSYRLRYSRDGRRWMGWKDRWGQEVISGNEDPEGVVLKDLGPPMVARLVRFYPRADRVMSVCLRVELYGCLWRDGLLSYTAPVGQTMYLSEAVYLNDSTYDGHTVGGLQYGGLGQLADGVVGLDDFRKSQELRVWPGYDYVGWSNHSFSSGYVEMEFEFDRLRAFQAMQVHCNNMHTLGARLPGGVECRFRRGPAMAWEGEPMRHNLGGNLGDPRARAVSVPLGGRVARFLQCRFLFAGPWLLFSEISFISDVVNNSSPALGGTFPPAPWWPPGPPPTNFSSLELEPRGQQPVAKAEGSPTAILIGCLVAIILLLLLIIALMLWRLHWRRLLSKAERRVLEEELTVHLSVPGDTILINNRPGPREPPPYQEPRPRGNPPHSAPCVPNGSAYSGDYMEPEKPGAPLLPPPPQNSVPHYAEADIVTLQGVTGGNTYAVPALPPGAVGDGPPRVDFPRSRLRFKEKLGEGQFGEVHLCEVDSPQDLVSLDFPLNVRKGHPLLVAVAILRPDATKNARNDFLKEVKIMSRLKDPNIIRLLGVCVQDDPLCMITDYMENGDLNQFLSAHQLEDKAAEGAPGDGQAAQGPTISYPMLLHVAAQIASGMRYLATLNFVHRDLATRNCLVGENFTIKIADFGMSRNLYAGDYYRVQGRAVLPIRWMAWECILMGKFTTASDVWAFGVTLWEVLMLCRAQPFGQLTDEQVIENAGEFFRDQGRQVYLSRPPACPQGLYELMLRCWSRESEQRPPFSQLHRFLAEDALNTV
UniProt P62993: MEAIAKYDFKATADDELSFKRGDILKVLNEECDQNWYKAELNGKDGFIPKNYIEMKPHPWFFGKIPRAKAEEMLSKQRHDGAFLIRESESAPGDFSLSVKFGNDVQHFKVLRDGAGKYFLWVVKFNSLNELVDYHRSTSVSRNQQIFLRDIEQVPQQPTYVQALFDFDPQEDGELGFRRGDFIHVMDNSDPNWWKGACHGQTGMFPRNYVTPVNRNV

Experiment [1] has as its target Discoidin domain receptor 1 (DDR1), in cervical cancer cells (human (in SiHa cervical cancer cells; endogenous or oeDDR1 not stated)) (UniProt Q08345). Put plainly: co-IP; SiHa cells; Pierce Co-Immunoprecipitation Kit, then western blot. On the technique in general: Immunoblotting shows a protein as a band on a membrane.
The next experiment has as its target myc-DDR1 (UniProt Q08345). Kind of experiment: co-IP; HEK293T cells co-transfected with myc-DDR1 (or myc-DDR1-K618A) and flag-GRB2 (or flag-GRB2 with missing domains); Pierce Co-Immunoprecipitation Kit, then western blot.
For a further experiment, the target named is myc-DDR1-K618A (UniProt Q08345). Described as above.

Results are given in words; binding and its absence hold for the method and conditions named. In cells and extracts the contact can be indirect. Some binding calls cover weakened binding; strength is not graded here.

Take “Growth factor receptor bound protein 2 (GRB2), in cervical cancer cells (from UniProt P62993 1-217)”: in experiment [1], the binding entry was “binds”.
flag-GRB2 (from UniProt P62993 1-217): the binding result with myc-DDR1 and with myc-DDR1-K618A was “binds” each time.
